According to the supplement of paper PMC10849652:
Some of the results follow.

Sequences of proteins named here, by UniProt entry; tags and fusion partners are left off. A change or cut given only in a name is not applied to a line headed by its entry.
UniProt Q96FJ2, whole entry, looked up: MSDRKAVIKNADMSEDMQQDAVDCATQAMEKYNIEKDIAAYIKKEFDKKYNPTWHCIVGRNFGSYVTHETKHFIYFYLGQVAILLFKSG
UniProt O75521: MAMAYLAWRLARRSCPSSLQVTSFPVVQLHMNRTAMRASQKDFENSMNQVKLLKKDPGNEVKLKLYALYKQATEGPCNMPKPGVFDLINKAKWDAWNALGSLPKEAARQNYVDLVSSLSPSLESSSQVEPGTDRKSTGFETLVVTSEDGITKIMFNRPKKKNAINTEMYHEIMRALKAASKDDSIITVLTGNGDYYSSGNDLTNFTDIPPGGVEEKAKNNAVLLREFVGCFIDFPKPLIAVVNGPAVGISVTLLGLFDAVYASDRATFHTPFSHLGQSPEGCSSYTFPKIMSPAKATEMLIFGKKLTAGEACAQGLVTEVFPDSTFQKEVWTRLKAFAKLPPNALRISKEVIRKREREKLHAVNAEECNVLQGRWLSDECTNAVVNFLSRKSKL
UniProt O43324: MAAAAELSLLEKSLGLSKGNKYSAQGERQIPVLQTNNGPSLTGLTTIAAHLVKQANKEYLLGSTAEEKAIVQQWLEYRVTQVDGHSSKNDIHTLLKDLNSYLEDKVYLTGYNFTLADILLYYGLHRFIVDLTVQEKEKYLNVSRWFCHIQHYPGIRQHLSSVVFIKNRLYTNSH
UniProt Q9BZQ6: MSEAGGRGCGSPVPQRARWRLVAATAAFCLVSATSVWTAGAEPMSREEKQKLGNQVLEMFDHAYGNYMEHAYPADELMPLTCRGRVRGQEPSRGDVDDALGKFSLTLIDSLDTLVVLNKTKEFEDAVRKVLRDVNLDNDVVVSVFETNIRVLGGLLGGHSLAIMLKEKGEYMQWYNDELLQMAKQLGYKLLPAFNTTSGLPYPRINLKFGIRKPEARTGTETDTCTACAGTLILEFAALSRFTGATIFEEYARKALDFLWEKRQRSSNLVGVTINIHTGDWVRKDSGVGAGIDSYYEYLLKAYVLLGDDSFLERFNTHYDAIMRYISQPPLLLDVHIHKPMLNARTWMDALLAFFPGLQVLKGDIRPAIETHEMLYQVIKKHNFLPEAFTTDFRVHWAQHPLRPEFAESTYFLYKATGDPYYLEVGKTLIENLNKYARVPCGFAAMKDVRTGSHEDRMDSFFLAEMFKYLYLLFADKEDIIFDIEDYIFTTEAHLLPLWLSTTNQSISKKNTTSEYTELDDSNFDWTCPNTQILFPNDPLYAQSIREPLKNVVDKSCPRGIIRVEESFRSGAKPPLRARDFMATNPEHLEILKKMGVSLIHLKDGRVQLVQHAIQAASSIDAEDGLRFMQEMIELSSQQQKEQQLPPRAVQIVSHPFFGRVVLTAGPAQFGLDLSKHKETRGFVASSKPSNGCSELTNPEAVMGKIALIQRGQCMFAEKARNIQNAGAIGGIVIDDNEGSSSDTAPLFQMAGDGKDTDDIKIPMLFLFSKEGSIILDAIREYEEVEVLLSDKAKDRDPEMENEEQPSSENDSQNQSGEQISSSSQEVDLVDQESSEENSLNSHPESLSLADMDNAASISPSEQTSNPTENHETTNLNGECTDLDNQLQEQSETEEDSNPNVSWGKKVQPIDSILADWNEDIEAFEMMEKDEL
UniProt Q92782, whole entry, looked up: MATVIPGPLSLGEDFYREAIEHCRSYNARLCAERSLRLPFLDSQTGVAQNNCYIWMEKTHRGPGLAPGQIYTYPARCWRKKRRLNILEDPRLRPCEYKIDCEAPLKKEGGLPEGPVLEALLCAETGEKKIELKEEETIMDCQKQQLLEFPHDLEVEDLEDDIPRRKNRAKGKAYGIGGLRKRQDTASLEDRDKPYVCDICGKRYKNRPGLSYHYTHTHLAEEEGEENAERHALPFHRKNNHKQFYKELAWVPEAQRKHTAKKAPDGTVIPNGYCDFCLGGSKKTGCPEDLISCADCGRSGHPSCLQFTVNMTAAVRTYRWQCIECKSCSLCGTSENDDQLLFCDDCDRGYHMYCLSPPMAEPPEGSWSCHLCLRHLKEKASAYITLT
UniProt Q15029: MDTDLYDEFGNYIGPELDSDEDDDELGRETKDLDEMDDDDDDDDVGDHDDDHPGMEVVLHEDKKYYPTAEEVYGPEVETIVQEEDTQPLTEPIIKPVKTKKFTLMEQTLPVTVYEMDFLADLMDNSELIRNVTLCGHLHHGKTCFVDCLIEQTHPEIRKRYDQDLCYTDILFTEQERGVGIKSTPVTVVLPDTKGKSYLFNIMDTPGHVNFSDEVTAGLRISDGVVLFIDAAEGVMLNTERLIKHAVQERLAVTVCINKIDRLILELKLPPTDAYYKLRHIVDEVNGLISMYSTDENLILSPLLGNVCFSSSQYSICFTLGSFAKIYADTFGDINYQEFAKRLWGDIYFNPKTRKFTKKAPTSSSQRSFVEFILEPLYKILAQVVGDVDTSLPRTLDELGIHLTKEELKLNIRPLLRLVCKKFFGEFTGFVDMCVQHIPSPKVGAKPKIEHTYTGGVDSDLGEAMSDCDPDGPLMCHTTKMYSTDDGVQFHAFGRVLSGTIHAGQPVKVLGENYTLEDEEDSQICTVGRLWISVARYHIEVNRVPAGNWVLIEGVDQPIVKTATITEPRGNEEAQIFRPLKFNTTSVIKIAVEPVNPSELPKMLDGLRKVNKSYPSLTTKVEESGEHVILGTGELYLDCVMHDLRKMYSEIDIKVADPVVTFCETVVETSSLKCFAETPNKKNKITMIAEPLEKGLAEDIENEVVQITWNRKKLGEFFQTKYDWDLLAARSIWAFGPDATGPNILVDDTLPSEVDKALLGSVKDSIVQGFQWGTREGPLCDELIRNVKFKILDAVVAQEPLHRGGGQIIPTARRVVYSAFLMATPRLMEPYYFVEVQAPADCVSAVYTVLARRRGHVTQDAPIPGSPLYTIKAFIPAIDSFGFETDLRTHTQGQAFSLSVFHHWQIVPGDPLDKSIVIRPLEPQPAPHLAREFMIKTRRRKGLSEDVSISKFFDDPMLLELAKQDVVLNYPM
UniProt Q5JPH6: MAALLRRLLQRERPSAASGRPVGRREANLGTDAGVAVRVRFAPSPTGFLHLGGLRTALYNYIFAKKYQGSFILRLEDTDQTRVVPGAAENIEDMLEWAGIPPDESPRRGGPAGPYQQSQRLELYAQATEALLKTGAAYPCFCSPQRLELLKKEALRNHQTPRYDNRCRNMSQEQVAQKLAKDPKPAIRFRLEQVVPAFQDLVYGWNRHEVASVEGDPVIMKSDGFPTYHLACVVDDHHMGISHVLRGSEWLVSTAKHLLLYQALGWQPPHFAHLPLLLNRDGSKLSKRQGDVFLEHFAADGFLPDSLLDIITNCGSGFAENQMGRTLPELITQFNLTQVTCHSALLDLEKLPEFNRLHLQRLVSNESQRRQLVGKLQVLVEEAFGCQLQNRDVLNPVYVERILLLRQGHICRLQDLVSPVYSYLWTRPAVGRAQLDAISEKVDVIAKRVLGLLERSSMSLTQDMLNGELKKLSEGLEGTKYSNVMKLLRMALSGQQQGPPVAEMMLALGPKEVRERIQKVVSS
UniProt Q99848: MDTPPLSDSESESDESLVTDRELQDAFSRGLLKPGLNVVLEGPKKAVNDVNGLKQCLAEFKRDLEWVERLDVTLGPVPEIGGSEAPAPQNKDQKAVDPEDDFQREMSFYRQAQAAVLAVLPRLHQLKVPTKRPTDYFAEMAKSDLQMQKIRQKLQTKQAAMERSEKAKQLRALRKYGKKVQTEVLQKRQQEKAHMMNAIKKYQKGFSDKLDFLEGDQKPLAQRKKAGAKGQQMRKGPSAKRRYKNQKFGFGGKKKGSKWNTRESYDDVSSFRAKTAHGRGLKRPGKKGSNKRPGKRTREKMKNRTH
UniProt Q96DC8: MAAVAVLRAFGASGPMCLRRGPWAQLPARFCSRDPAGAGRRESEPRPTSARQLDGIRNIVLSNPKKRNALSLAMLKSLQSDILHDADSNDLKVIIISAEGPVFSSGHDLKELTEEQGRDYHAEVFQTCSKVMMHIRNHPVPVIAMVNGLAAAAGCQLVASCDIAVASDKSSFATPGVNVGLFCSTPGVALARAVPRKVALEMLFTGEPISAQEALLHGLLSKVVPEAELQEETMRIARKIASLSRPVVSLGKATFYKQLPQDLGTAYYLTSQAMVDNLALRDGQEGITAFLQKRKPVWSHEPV
UniProt Q9NZN4: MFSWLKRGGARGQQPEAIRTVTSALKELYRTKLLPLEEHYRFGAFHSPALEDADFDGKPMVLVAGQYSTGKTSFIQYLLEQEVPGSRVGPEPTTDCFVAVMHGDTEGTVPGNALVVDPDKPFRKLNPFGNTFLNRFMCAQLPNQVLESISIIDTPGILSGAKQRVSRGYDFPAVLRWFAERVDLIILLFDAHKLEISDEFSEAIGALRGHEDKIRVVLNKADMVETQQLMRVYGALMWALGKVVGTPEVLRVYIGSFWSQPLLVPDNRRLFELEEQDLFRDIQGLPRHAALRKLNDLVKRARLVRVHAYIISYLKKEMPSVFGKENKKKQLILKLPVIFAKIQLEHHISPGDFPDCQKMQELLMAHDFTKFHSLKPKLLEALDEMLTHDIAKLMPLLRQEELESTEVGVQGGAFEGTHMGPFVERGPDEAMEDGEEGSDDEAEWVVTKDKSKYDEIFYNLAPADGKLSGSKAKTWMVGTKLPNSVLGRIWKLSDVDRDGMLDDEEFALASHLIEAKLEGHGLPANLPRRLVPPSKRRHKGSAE
UniProt Q9BQ95: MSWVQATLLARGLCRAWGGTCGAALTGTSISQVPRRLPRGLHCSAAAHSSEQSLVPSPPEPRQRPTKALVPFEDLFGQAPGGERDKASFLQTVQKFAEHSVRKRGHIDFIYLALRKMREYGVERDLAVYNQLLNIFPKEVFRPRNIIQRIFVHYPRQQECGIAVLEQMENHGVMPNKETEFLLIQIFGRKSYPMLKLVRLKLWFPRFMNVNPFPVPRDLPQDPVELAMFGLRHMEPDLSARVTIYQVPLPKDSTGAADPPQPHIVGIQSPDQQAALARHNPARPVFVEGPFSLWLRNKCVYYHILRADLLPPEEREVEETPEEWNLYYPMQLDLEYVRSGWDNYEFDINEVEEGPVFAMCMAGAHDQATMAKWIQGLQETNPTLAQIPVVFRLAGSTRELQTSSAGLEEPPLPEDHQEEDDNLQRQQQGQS
UniProt Q8WWZ3: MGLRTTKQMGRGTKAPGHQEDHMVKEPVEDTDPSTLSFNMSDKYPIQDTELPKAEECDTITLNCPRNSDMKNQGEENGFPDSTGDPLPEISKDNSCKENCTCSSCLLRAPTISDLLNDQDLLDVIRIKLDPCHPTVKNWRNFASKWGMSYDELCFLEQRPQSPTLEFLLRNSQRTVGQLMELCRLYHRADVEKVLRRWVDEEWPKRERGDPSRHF
UniProt Q9H4M9: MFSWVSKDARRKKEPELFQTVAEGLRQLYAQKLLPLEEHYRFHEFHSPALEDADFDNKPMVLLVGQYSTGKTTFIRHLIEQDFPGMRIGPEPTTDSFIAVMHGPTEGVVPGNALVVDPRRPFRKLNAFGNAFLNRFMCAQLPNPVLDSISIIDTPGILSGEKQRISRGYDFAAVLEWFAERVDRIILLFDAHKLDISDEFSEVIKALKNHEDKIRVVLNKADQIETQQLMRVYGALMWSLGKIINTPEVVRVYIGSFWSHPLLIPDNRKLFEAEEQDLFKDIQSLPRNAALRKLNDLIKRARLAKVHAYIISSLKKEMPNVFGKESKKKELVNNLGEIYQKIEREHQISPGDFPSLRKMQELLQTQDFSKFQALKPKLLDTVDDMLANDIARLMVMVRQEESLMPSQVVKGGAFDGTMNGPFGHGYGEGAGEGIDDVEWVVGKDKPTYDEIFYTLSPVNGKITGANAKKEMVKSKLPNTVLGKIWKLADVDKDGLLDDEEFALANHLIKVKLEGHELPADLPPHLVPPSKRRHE
UniProt Q8N5C7: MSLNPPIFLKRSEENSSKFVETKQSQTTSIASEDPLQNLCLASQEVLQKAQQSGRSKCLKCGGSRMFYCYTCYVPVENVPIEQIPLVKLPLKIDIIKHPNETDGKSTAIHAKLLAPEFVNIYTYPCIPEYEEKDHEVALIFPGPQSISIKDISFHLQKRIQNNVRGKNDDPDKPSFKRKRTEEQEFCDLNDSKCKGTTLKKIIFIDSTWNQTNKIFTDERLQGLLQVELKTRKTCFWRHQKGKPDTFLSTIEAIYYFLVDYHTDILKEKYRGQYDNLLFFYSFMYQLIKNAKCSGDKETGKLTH
UniProt Q13011: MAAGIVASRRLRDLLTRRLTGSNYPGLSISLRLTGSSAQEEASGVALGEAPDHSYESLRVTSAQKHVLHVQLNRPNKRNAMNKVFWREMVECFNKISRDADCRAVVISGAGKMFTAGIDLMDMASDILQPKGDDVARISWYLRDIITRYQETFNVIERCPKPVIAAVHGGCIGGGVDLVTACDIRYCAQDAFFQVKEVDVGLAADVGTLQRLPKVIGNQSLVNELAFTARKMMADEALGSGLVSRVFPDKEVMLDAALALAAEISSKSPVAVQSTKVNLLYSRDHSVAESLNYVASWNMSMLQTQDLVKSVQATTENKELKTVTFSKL

Legend:
Test in all cases: log2 fold change, soluble protein after heating vs DMSO (PISA); higher = thermal stabilisation; K562 lysate, 10 uM; active = over 0.2 and 3.5 SD of the protein, either way, in both replicates (recomputed)
[1] = compound: NCC(=O)Nc1ccc(-n2nc(C(F)(F)F)cc2-c2ccc3c(ccc4ccccc43)c2)cc1
How it was run: (§1)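 Values give the log-two fold change in thermal stability against solvent controls, from duplicates. Crude K562 extract at 1 mg/mL protein, made by dounce homogenisation in PBS pH 7.4 with 1 mM MgCl2, was treated with 10 μM compound for 30 min. After 3 min heating across 48°C-58°C, aliquots were pooled, adjusted to 0.5% NP-40 at 4°C and centrifuged at 21,000xg for 90 min. The supernatant was measured by TMTpro 16plex LC-MS/MS with channel sums equalised.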

vorinostat = compound: O=C(CCCCCCC(=O)Nc1ccccc1)NO [vorinostat]
How it was run: as §1

silmitasertib = compound: O=C(O)c1ccc2c(c1)nc(Nc1cccc(Cl)c1)c1ccncc12 [silmitasertib]
How it was run: as §1

[2] = compound: O=C1NC(=O)C(c2cnc3ccccn23)=C1c1cn2c3c(cc(F)cc13)CN(C(=O)N1CCCCC1)CC2
How it was run: as §1

entospletinib = compound: c1cn2cc(-c3ccc4cn[nH]c4c3)nc(Nc3ccc(N4CCOCC4)cc3)c2n1 [entospletinib]
How it was run: as §1

Target | log2 fold change [1] | log2 fold change (vorinostat) | log2 fold change (silmitasertib) | log2 fold change [2] | log2 fold change (entospletinib)
DYNLL2 (UniProt Q96FJ2) | inactive: -0.062 | inactive: 0.075 | inactive: 0.072 | inactive: 0.037 | inactive: -0.028
ECI2 (UniProt O75521) | inactive: 0.08 | inactive: 0.146 | inactive: 0.022 | active: 0.284 | inactive: -0.033
EEF1E1 (UniProt O43324) | inactive: -0.018 | inactive: -0.233 | inactive: -0.012 | inactive: 0.01 | inactive: 0.012
EDEM3 (UniProt Q9BZQ6) | inactive: 0.022 | inactive: 0.016 | inactive: -0.047 | inactive: -0.036 | inactive: -0.045
E2F4 (UniProt Q16254) | inactive: 0.022 | inactive: -0.17 | inactive: 0.016 | inactive: 0.019 | inactive: -0.027
DPF1 isoform 2 (UniProt Q92782) | inactive: -0.077 | inactive: -0.055 | inactive: 0.127 | inactive: 0.036 | inactive: -0.027
EFTUD2 (UniProt Q15029) | inactive: 0.015 | inactive: 0.097 | inactive: -0.021 | inactive: -0.015 | inactive: 0.009
EARS2 (UniProt Q5JPH6) | inactive: 0.034 | inactive: -0.184 | inactive: -0.046 | inactive: 0.013 | inactive: -0.13
EBNA1BP2 (UniProt Q99848) | inactive: -0.017 | inactive: 0.11 | inactive: 0.009 | inactive: 0.028 | inactive: 0.016
ECHDC3 (UniProt Q96DC8) | inactive: -0.073 | inactive: 0.062 | inactive: 0.011 | inactive: -0.068 | inactive: 0.053
EHD2 (UniProt Q9NZN4) | inactive: 0.005 | active: -0.282 | inactive: 0.073 | inactive: 0.018 | inactive: 0.032
ECSIT (UniProt Q9BQ95) | inactive: 0.017 | inactive: 0.137 | inactive: -0.004 | inactive: -0.041 | inactive: 0.068
DUS1L (UniProt Q6P1R4) | inactive: 0.03 | inactive: -0.132 | inactive: -0.036 | inactive: 0.061 | inactive: 0.085
EDARADD (UniProt Q8WWZ3) | inactive: 0.022 | inactive: -0.168 | inactive: 0.02 | inactive: -0.05 | inactive: -0.057
EHD1 (UniProt Q9H4M9) | inactive: 0.011 | inactive: 0.018 | inactive: -0.017 | inactive: 0.019 | inactive: -0.019
DTWD1 (UniProt Q8N5C7) | inactive: 0.059 | active: -0.27 | inactive: -0.022 | inactive: -0.028 | inactive: 0.036
ECH1 (UniProt Q13011) | inactive: 0.041 | inactive: 0.081 | inactive: -0.026 | inactive: -0.052 | inactive: 0.022

Record cards, as listed above.
ECH1 (UniProt Q13011) reads log2 fold change [1]: inactive: 0.041; log2 fold change (vorinostat): inactive: 0.081; log2 fold change (silmitasertib): inactive: -0.026; log2 fold change [2]: inactive: -0.052; log2 fold change (entospletinib): inactive: 0.022
E2F4 (UniProt Q16254) reads log2 fold change [1]: inactive: 0.022; log2 fold change (vorinostat): inactive: -0.17; log2 fold change (silmitasertib): inactive: 0.016; log2 fold change [2]: inactive: 0.019; log2 fold change (entospletinib): inactive: -0.027
